# Out of some 400,000 compounds screened, about 5,500 (1.4%) were called active. Inconclusive results, whose numbers are uncertain, are shown with a selection of clear calls. Calls come from the whole dose curve; as a rule, active = well fitted cell-killing curve with a large enough effect; inconclusive = small, poorly fitted or top-dose-only effect, or effect the other way; inactive = flat fitted curve, though single readings scatter. Where the call is inconclusive, the potency comes from a doubtful curve fit.
# Experiment: qHTS assay for MDR1-selective chemotherapeutics: Primary screen using the parental adenocarcinoma cell KB-3-1; note: nearly all actives have a fitted effect of over 60% in size
# Details: KB-3-1 viability, CellTiter-Glo ATP luminescence, 72 h; activity change, negative = cytotoxic: at 46.1 µM (top of the series)
# Outline: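 Parental KB-3-1 viability, qHTS format: 72 h compound exposure, 37 °C; CellTiter-Glo; media-only wells and DMSO plates as controls; concentration-effect fits on corrected data.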
# % is set by controls: 0 for no effect and ±100 for the full control effect; potency is the fitted concentration of half-maximal effect.
SMILES,Potency,"activity change, negative = cytotoxic"
COc1ccc(NC(=O)Cn2nnc(-c3ccccc3NC(=O)c3ccco3)n2)cc1,active: 4.11 µM,
Cc1cccc(C)c1NC(=O)C1C(c2ccc3c(c2)OCO3)=Nc2ccccc2N1C(=O)c1ccccn1 (stereo not given),"inconclusive: 29.1 µM [cytotoxic, single point]",
CN1CCCC(C)(C(=O)Nc2ccc3scnc3c2)C1 (stereo not given),,inactive: 0%
Cc1cc(Cc2cc(C)c(O)c(CO)c2)cc(CO)c1O,"inconclusive: 9.2 µM [cytotoxic, partial curve, poor fit]",
CCOc1ccc(NC(=O)NCCc2c(C)nn(C)c2C)cc1,,inactive: 4.17%
Oc1cccc2ccc(/C=C/c3cccs3)nc12,"inconclusive: 25.1 µM [cytotoxic, single point]",
CNC(=O)CSc1nc(-c2ccccc2)c(-c2ccccc2)[nH]1,"inconclusive: 29.1 µM [cytotoxic, single point]",
COc1ccc2cc3cc(C(=O)N4CCN(c5ccccc5)CC4)oc3nc2c1,,inactive: 4.04%
Cc1ccc(N(CC(=O)NC2CCCCC2C)S(=O)(=O)c2c(C)nn(C)c2C)cc1 (stereo not given),,inactive: 7.68%
NC(=O)c1c(NC(=O)CN2C(=O)CCC2=O)sc2c1CCCCC2,,inactive: 22.3%
CCOC(=O)c1ccc(NC(=O)NCc2ccccn2)cc1,"inconclusive: 32.6 µM [rising, single point]",
CCCCC(=O)N1CCN(c2nc3ccc(Cl)cc3s2)CC1,"inconclusive: 0.517 µM [cytotoxic, full curve, poor fit]",
CCOc1ccc2nc(Cl)c(CN(C(C)=O)C3CCCCC3)cc2c1,,inactive: 0.398%
O=C(C1=C[C@@H](C2CCCCC2)C[C@@H](OCc2ccc(CO)cc2)O1)N1CCN(Cc2ccc3c(c2)OCO3)CC1,"inconclusive: 16.4 µM [cytotoxic, single point]",
O=C1CCN(CCc2ccccc2)CCN1[C@H](CSc1ccc(Br)cc1)Cc1ccccc1,"inconclusive: 20.6 µM [cytotoxic, single point]",
COc1ccc(Br)cc1C(C[N+](=O)[O-])c1c(N)n(C)c(=O)n(C)c1=O (stereo not given),"inconclusive: 29.1 µM [cytotoxic, single point]",
COc1ccc(C(C)C)cc1S(=O)(=O)Nc1cccnc1,"inconclusive: 29.1 µM [cytotoxic, partial curve, poor fit]",
Cc1ccc(S(=O)(=O)N2[C@H](c3cccc(Cl)c3)CC(=O)[C@@H]3CN(S(=O)(=O)c4ccccc4C)[C@H](c4ccc(Cl)cc4)C[C@@H]32)cc1,active: 3.66 µM,
O=C(Nc1ccccc1Cl)NC1(C(=O)N2CCOCC2)CCCCC1,"inconclusive: 13 µM [rising, single point]",
CCN(CC)CCNC(=O)c1c(C)n(-c2ccccc2)c2cc(Br)c(OC)cc12,"inconclusive: 20.6 µM [cytotoxic, single point]",
O=S1(=O)N[C@H](Cc2ccccc2)COc2cc(N3CCC[C@@H]3CO)ccc21,active: 20.6 µM,
COc1cc(/C=N/NC(=O)Cc2nnc(N)s2)cc(OC)c1OC,,inactive: 7.79%
CC(OC(=O)/C=C/c1ccc2ccccc2n1)C(=O)N(C)c1ccccc1 (stereo not given),"inconclusive: 29.1 µM [cytotoxic, single point]",

# Structural class: those above containing a furan ring, fused or not
SMILES,Potency,"activity change, negative = cytotoxic"
COc1ccc(NC(=O)Cn2nnc(-c3ccccc3NC(=O)c3ccco3)n2)cc1,active: 4.11 µM,
COc1ccc2cc3cc(C(=O)N4CCN(c5ccccc5)CC4)oc3nc2c1,,inactive: 4.04%

# Laid out differently: results already given.
SMILES	Potency	activity change, negative = cytotoxic
COc1ccc(NC(=O)Cn2nnc(-c3ccccc3NC(=O)c3ccco3)n2)cc1	active: 4.11 µM	
COc1ccc2cc3cc(C(=O)N4CCN(c5ccccc5)CC4)oc3nc2c1		inactive: 4.04%

# Remaining list, next part

SMILES,Potency,"activity change, negative = cytotoxic"
CCN1CCN(C2=C(NS(=O)(=O)c3ccc(C)cc3)C(=O)c3ccccc3C2=O)CC1,"inconclusive: 23.1 µM [cytotoxic, single point]",
Cc1cccc2sc(=S)[nH]c12,,inactive: 0%
O=c1[nH]c(-c2ccccn2)nc2ccccc12,"inconclusive: 2.91 µM [cytotoxic, full curve]",
Cc1nc2ccc(NS(=O)(=O)c3ccc4c(c3)OCCO4)cc2s1,,inactive: -5.35%
CC(=O)c1cn(CC(=O)Nc2ccc(C)cc2C)c2ccccc12,"inconclusive: 18.4 µM [cytotoxic, single point]",
C#Cc1ccc(NC(=O)C2(C)CCN2C(=O)Cc2ccc(-c3ccccc3)cc2)cc1 (stereo not given),"inconclusive: 29.1 µM [cytotoxic, single point]",
CCC(=O)c1ccc(OCC(=O)Nc2cccc(S(=O)(=O)N3CCCCCC3)c2)cc1,,inactive: -13.9%
COc1cc(CNCCc2ccc(S(N)(=O)=O)cc2)ccc1OCC(=O)NC1CCCCC1,"inconclusive: 20.6 µM [cytotoxic, single point]",
C/C(=N/NC(=O)c1ccccn1)c1ccco1,"inconclusive: 10.3 µM [cytotoxic, partial curve]",
CC(=O)c1c(C)oc2ccc(N(C(C)=O)S(=O)(=O)c3ccc(Cl)c([N+](=O)[O-])c3)cc12,"inconclusive: 29.1 µM [cytotoxic, single point]",
O=C(C[n+]1cc(-c2ccc(Cl)c(Cl)c2)n2c1CCC2)OCc1ccccc1,,inactive: 2.87%
CCOC(=O)c1cnc2ccccc2c1NCCc1ccc(OC)c(OC)c1,inactive,
O=[N+]([O-])c1cc(-c2ccccc2)cc([N+](=O)[O-])c1O,active: 16.4 µM,
O=C1C=CC2(C=C1)O[C@H](Cc1ccccc1)[C@@H](Cc1ccccc1)O2,"inconclusive: 29.1 µM [cytotoxic, single point]",
COc1ccc(C2CC(c3ccccc3)Nc3nc(NC(=O)c4cccs4)nn32)cc1 (stereo not given),,inactive: -1.62%
Cc1c(/C=N/NC(=O)c2cccnc2)c2ccccc2n1Cc1ccccc1,"inconclusive: 13 µM [cytotoxic, partial curve]",
COc1ccc(NC(=O)C2CCCN(S(=O)(=O)c3cccc4cccnc34)C2)cc1OC (stereo not given),"inconclusive: 16.4 µM [cytotoxic, single point]",
CCN(CC)c1ccc(C(=O)NNC(=O)CCl)cc1,"inconclusive: 23.1 µM [cytotoxic, partial curve, poor fit]",
CCC(CC)N1CCN(CC2CC=CCC2)CC1 (stereo not given),,inconclusive: -2.9%
O=C(NN1C(=O)/C(=C/c2cccnc2)SC1=S)C(c1ccccc1)c1ccccc1,"inconclusive: 16.4 µM [rising, partial curve, poor fit]",
O=C(CCc1c[nH]c2ccccc12)OCC(=O)N1CCN(S(=O)(=O)c2ccccc2)CC1,,inactive: -1.31%
COCCNC(=O)c1cn(C)c2ccc(S(=O)(=O)N3CCCCC3)cc2c1=O,active: 23.1 µM,

# Reference: PubChem BioAssay AID1347075 (National Center for Advancing Translational Sciences (NCATS), 2019)
